Source: PMC10920453
No constants are given. Whether binding was seen depends on the method and setting. Binding seen in cells or lysates may run through a third protein. Some results given as binding are weak or reduced against the parent protein; the word gives no strength.

Sequences of proteins named here, by UniProt entry; tags and fusion partners are left off.
UniProt Q92993: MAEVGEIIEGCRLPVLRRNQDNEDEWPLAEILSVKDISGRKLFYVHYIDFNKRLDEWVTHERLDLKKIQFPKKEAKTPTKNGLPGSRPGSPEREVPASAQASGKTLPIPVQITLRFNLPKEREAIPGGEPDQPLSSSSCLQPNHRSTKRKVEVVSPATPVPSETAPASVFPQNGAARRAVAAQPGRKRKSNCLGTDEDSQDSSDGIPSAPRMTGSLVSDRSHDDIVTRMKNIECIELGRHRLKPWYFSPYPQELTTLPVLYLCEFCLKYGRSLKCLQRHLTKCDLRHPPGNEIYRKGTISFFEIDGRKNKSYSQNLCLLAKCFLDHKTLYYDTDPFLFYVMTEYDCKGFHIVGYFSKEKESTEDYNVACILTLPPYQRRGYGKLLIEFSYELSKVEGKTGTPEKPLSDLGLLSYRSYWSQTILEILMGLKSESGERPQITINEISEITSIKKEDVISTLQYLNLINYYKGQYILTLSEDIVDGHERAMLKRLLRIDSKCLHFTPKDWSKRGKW

Target: Lysine acetyltransferase 5 (KAT5) (human (endogenous in HepG2)) (UniProt Q92993)
Assay: co-IP; HepG2 cell lysate; precipitated with anti-KAT5 antibody (anti-IgG as negative control), Protein G/A beads, 4 °C; washed with 50 mM Tris-HCl pH 7.4, 100 mM NaCl, 5 mM CaCl2, 5 mM MgCl2, 0.1% Nonidet P-40; western blot with anti-ALDOA

B1: Aldolase A (ALDOA) (enzyme, UniProt P04075 1-364)
chain: MPYQYPALTPEQKKELSDIAHRIVAPGKGILAADESTGSIAKRLQSIGTENTEENRRFYRQLLLTADDRVNPCIGGVILFHETLYQKADDGRPFPQVIKSKGGVVGIKVDKGVVPLAGTNGETTTQGLDGLSERCAQYKKDGADFAKWRCVLKIGEHTPSALAIMENANVLARYASICQQNGIVPIVEPEILPDGDHDLKRCQYVTEKVLAAVYKALSDHHIYLEGTLLKPNMVTPGHACTQKFSHEEIAMATVTALRRTVPPAVTGITFLSGGQSEEEASINLNAINKCPLLKPWALTFSYGRALQASALKAWGGKKENLKAAQEEYVKRALANSLACQGKYTPSGQAGAAASESLFVSNHAY
In the case of B1, the binding is reported as “binds”.
